Data as given in PubChem BioAssay AID720505 (Drosophila RNAi Screening Center, 2013).

Test: 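Genes needed for store-operated calcium entry in fly cells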 (primary screen)
Cells: Drosophila S2R+ cells
Knock-down reagent: long dsRNA against Drosophila genes
Challenge: thapsigargin (2 µM) in calcium-free buffer to empty internal stores, then 2 mM calcium added back
Detection: 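Stores emptied by 2 µM thapsigargin without calcium, then 2 mM calcium re-added; fluo-4 fluorescence followed by FLIPR in 384-well plates, per-well averaged endpoint, raw; two screen passes, some wells retested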
Direction: calcium signal: higher = more calcium entry after store depletion
Rule for the call: 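About 1500 genes called as lowering calcium entry, by varying amounts, judged against per-plate control wells with STIM1 as positive and Rho1 as negative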
Meaning of the calls: active = called as lowering calcium entry; inactive = not called
The screen tested about 20,000 reagents; below is an unselected part of those that have a named target and a result. Of all reagents, about 2,100 (10%) are marked active. 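Raw plate signals without normalisation; calls rest on control-based scores that were not deposited; replicate 2 separates called from uncalled poorly.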 Names joined by + are all predicted targets of the reagent. Reagent sequences are not shown. Not given: the amount of reagent, the time to read-out.

target gene | amplicon | calcium signal, replicate 1 | calcium signal, replicate 2 | call
CG7849 | DRSC04895 | 121 | 157 | inactive
CG34029 | DRSC03909 | 84.3 | 6362 | inactive
Or67b (Odorant receptor 67b) | DRSC11241 | 82.8 | 140 | inactive
CG14864 | DRSC14987 | 135 | 139 | inactive
ninaA (neither inactivation nor afterpotential A) | DRSC00830 | 110 | 164 | inactive
CG8520 | DRSC07206 | 176 | 122 | inactive
CG34188 | DRSC05549 | 79.3 | 105 | inactive
CG42342 | DRSC14378 | 78.8 | 96.5 | inactive
CG42342 | DRSC15010 | 129 | 124 | inactive
CG42342 | DRSC15011 | 140 | 83.5 | inactive
CG42342 | DRSC15012 | 98.8 | 86.3 | inactive
CG42342 | DRSC21791 | 163 | 81 | inactive
CG42342 | DRSC22861 | 69.1 | 76.8 | inactive
CG42342 | DRSC23112 | 120 | 150 | inactive
CG6330 | DRSC16022 | 129 | 109 | inactive
CG5815 | DRSC14135 | 163 | 198 | inactive
CG9389 | DRSC11857 | 114 | 74.6 | inactive
CG11498 | DRSC14315 | 218 | 138 | inactive
aPKC (atypical protein kinase C) | DRSC05515 | 70.9 | 126 | inactive
aPKC (atypical protein kinase C) | DRSC07639 | 99.6 | 155 | inactive
Zmynd10 (Zinc finger MYND-type containing 10) | DRSC09826 | 88.8 | 86.7 | inactive
CG5174 | DRSC06920 | 117 | 88.9 | inactive
CG17376 | DRSC21717 | 106 | 78.1 | inactive
CG10194 | DRSC02025 | 96.1 | 99.3 | inactive
CG14220 | DRSC19577 | 73.5 | 163 | active
CG33340 | DRSC14615 | 205 | 166 | inactive
CG6693 | DRSC16097 | 113 | 116 | inactive
Ssk (Snakeskin) | DRSC10756 | 126 | 141 | inactive
CG17776 | DRSC18136 | 124 | 112 | inactive
Tsp42Eo (Tetraspanin 42Eo) | DRSC06184 | 95.6 | 80.8 | inactive
CG18233 | DRSC10308 | 69.7 | 138 | inactive
CG7231 | DRSC03034 | 90.3 | 110 | inactive
Ptp99A (Protein tyrosine phosphatase 99A) | DRSC13933 | 8211 | 136 | inactive
Ptp99A (Protein tyrosine phosphatase 99A) | DRSC14319 | 69.2 | 128 | active
Ptp99A (Protein tyrosine phosphatase 99A) | DRSC14320 | 140 | 111 | inactive
Ptp99A (Protein tyrosine phosphatase 99A) | DRSC16803 | 140 | 96.4 | inactive
Ptp99A (Protein tyrosine phosphatase 99A) | DRSC22125 | 77.9 | 155 | inactive
Ptp99A (Protein tyrosine phosphatase 99A) | DRSC22477 | 138 | 188 | inactive
Ptp99A (Protein tyrosine phosphatase 99A) | DRSC23033 | 120 | 159 | inactive
CG15167 | DRSC02468 | 123 | 118 | inactive
CG10341 | DRSC02040 | 67 | 75.8 | active
Taf9 (TBP-associated factor 9) | DRSC20326 | 195 | 185 | inactive
CG12065 | DRSC17798 | 117 | 111 | inactive
CG12065 | DRSC17799 | 195 | 89 | inactive
grnd (grindelwald) | DRSC02020 | 95.4 | 82.1 | inactive
CG10165 | DRSC02017 | 86.4 | 164 | inactive
CG6685 | DRSC10695 | 88.2 | 101 | inactive
SCOT (Succinyl-CoA:3-ketoacid CoA transferase) | DRSC08186 | 143 | 88.5 | inactive
CG32985 | DRSC02634 | 82.3 | 125 | inactive
CG2765 | DRSC04315 | 95.6 | 118 | inactive
CG42445 | DRSC10858 | 107 | 119 | inactive
CG14861 | DRSC14984 | 140 | 240 | inactive
CG4483 | DRSC10426 | 104 | 115 | inactive

As entered above.
CG5815 [DRSC14135], call → inactive
For “calcium signal, replicate 1”, CG10165 [DRSC02017] reads 86.4
CG7849 [DRSC04895], call → inactive
For “calcium signal, replicate 2”, Tsp42Eo (Tetraspanin 42Eo) [DRSC06184] has 80.8
CG10194 [DRSC02025], call = inactive
CG11498 [DRSC14315], call = inactive

Next records:
target gene | amplicon | calcium signal, replicate 1 | calcium signal, replicate 2 | call
lncRNA:CR9162 (long non-coding RNA:CR9162) | DRSC03151 | 97.1 | 191 | inactive
Acp53C14b (Accessory gland protein 53C14b) | DRSC06569 | 165 | 153 | inactive
CG1971 | DRSC15406 | 77.5 | 115 | active
CG9743 | DRSC16552 | 124 | 109 | inactive
CG17005 | DRSC02556 | 192 | 152 | inactive
TotB (Turandot B) | DRSC15842 | 197 | 151 | inactive
CG10211 | DRSC02027 | 66 | 95.9 | active
CR10991 (pseudo) | DRSC12156 | 107 | 177 | inactive
Dok (Downstream of kinase) | DRSC18204 | 223 | 115 | inactive
CG13544 | DRSC04186 | 120 | 273 | inactive
Vml (Vitelline membrane-like) | DRSC18529 | 142 | 107 | inactive
CG8833 | DRSC11050 | 76.2 | 83.6 | inactive
140up (upstream of RpII140) | DRSC12634 | 97 | 123 | inactive
Cpr62Bb (Cuticular protein 62Bb) | DRSC08404 | 99.8 | 118 | inactive
chk (chaski) | DRSC04994 | 182 | 125 | inactive
Osi20 (Osiris 20) | DRSC12568 | 129 | 177 | inactive
Lztr1 (Leucine zipper like transcription regulator 1) | DRSC18176 | 121 | 172 | inactive
Lztr1 (Leucine zipper like transcription regulator 1) | DRSC18647 | 109 | 171 | inactive
mRpL48 (mitochondrial ribosomal protein L48) | DRSC00506 | 178 | 124 | inactive
Rsph1 (Radial spoke head protein 1) | DRSC02864 | 118 | 82.3 | inactive
Pepck2 (Phosphoenolpyruvate carboxykinase 2) | DRSC06013 | 123 | 130 | inactive
CG3808 | DRSC10377 | 53 | 69.6 | active
CG1791 | DRSC18141 | 96.1 | 93.2 | inactive
Prx6c + CG12896 + Prx6b | DRSC06148 | 129 | 157 | inactive
Atg5 (Autophagy-related 5) | DRSC18112 | 130 | 139 | inactive
Thor | DRSC00770 | 127 | 280 | inactive
CG14546 | DRSC14890 | 275 | 167 | inactive
CG12935 | DRSC06248 | 193 | 106 | inactive
CG7443 | DRSC16244 | 123 | 111 | inactive
CG10474 | DRSC05993 | 112 | 120 | inactive
ssp2 (short spindle 2) | DRSC11052 | 72.6 | 87.8 | active
htk (hat-trick) | DRSC20029 | 76.2 | 77.8 | active
htk (hat-trick) | DRSC20031 | 166 | 138 | inactive
edl (ETS-domain lacking) | DRSC06516 | 73.2 | 132 | active
CG32687 | DRSC18210 | 88 | 126 | inactive
CG32687 | DRSC18237 | 73.7 | 133 | inactive
AnxB10 (Annexin B10) | DRSC20677 | 132 | 151 | inactive
CG13247 | DRSC11695 | 102 | 149 | inactive
CG14050 | DRSC18594 | 80.5 | 104 | inactive
Syx5 (Syntaxin 5) | DRSC03432 | 91.6 | 118 | inactive
CG8785 | DRSC07266 | 160 | 169 | inactive
CG15580 | DRSC12266 | 91.3 | 147 | inactive
CG13031 | DRSC09911 | 117 | 161 | inactive
CG14805 | DRSC18554 | 118 | 123 | inactive
CG18538 | DRSC06765 | 180 | 141 | inactive
CG14015 | DRSC02346 | 104 | 86.2 | inactive
CG42699 | DRSC18076 | 128 | 109 | inactive
CG42699 | DRSC18341 | 208 | 115 | inactive
Clic (Chloride intracellular channel) | DRSC19364 | 96 | 77.5 | inactive
CG17839 | DRSC10290 | 127 | 148 | inactive
CG17839 | DRSC10291 | 93.7 | 165 | inactive
mirr (mirror) | DRSC11369 | 83.3 | 81.3 | inactive
CG15741 | DRSC19707 | 123 | 82 | inactive
